Drawing on publication PMC7782530, this text covers binding for one substance.

Chains of the proteins cited; added tags and fusions are not shown.
UniProt Q92597: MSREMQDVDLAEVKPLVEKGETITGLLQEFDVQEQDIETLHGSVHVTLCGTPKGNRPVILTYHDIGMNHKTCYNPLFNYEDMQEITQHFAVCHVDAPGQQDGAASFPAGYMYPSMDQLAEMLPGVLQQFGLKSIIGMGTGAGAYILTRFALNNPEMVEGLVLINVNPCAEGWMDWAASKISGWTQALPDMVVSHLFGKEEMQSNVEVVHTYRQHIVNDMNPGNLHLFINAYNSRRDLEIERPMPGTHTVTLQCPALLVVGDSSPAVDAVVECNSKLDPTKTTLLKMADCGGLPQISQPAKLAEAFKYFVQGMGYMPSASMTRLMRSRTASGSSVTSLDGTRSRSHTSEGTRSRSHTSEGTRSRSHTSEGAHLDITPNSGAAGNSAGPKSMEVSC
UniProt P10275: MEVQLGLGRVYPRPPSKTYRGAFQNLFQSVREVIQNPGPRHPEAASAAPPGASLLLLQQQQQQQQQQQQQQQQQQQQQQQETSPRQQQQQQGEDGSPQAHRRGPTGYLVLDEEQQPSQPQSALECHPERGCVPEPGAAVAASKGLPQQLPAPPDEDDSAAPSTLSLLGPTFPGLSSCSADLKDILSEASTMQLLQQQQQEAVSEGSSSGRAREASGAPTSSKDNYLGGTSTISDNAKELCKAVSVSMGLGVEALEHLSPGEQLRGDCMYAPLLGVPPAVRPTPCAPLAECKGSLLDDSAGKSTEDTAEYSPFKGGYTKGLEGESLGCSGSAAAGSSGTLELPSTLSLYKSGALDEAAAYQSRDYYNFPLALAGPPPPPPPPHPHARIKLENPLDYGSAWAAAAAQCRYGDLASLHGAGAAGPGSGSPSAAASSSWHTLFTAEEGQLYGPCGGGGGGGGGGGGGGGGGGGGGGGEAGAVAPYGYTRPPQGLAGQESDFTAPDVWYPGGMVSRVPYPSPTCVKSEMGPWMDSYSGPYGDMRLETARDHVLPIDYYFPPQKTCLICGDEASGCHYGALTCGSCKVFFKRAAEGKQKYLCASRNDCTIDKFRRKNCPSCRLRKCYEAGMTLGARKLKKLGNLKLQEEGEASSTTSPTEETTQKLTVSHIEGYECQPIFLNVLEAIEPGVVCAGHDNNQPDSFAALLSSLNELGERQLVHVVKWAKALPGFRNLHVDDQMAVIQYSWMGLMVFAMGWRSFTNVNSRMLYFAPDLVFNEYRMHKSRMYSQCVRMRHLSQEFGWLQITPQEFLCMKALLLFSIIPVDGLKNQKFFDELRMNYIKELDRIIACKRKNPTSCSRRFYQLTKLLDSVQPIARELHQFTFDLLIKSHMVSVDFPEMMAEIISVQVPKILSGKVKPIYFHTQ

Results are given in words; binding and its absence hold for the method and conditions named. Binding seen in cells or lysates may run through a third protein. Some binding calls cover weakened binding; strength is not graded here.

The assay concerns the target N-Myc Downstream-Regulated Gene 1 (NDRG1), endogenous in LNCaP cells (human (endogenous in LNCaP)) (UniProt Q92597). The assay is described as follows: co-IP; endogenous NDRG1 immunoprecipitated from LNCaP cells, with or without PIM1 overexpression; western blot for AR. On the technique in general: A western blot detects proteins with antibodies after separation by electrophoresis.

On to “androgen receptor (AR), endogenous in LNCaP cells (from UniProt P10275 1-920)”, for which the binding entry is recorded as “binds”.
